These are yes or no findings as the source states them, for the method shown. Binding seen in cells or lysates may run through a third protein. Some results given as binding are weak or reduced against the parent protein; the word gives no strength. For some of these results: Sequences can lack the tags named with a protein.
Assays:
[1] = target: T1, FCHo1-C-3×DDK (full-length wild-type FCHo1 with C-terminally fused 3×FLAG tag) (human) (UniProt O14526); assay: co-immunoprecipitation with anti-FLAG antibody
T1 sequence (looked up): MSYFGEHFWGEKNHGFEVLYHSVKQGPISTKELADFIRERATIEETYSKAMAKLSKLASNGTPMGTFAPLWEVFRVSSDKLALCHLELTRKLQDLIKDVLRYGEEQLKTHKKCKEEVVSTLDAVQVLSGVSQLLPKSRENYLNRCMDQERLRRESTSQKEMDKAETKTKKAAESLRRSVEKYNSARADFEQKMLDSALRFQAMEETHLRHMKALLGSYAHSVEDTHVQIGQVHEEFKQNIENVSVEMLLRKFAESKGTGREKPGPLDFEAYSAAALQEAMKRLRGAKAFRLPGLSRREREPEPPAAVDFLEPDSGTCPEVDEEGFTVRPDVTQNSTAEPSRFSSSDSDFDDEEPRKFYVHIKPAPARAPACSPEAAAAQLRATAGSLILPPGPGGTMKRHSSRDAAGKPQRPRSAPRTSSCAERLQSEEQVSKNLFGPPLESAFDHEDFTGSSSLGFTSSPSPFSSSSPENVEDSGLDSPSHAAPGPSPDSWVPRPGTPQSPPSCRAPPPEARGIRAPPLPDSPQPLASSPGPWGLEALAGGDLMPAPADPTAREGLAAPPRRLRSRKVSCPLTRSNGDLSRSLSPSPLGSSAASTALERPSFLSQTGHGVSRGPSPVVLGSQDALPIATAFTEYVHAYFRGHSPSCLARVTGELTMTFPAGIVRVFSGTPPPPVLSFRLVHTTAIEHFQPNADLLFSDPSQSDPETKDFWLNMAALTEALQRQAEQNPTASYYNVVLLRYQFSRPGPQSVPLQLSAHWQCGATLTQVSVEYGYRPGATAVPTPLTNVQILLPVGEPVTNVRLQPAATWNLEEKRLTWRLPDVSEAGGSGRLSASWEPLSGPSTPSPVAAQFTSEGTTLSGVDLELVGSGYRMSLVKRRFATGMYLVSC

By UniProt entry, the sequences of proteins in these tests, tags left out. Residues count along the entry.
UniProt P63104: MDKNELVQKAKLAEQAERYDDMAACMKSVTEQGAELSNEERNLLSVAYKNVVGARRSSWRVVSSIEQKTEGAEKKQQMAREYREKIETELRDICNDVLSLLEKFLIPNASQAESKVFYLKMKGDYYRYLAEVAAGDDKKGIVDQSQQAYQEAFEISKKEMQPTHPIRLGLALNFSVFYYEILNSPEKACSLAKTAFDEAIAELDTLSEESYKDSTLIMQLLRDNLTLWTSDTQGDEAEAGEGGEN
UniProt P14780, residues 20-707: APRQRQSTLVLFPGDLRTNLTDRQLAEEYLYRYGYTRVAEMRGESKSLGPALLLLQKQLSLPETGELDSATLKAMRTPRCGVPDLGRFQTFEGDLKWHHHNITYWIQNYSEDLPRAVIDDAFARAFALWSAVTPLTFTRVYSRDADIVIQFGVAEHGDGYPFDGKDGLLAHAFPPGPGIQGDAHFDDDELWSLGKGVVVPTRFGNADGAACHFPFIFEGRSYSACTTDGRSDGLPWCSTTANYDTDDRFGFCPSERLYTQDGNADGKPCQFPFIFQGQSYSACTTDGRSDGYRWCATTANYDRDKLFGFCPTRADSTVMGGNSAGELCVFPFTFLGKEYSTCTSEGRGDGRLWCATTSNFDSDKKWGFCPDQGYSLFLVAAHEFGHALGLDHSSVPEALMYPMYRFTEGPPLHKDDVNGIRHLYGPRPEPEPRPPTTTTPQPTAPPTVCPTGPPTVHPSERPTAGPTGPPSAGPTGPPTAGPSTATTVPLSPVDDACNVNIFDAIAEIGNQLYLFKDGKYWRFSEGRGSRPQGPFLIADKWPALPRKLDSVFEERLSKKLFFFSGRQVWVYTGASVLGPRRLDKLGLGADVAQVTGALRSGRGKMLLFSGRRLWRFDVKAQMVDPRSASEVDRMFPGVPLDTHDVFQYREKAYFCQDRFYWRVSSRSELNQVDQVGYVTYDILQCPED

[2] = target: T2, FCHo1 (FCH domain only 1), cellular protein of A549 cells detected with the α584-804 antibody (human) (UniProt O14526); assay: in situ proximity ligation assay (PLA), A549 cells
T2 sequence (looked up): T1 sequence (looked up)

[3] = target: T1, FCHo1-C-3×DDK (full-length wild-type FCHo1 with C-terminally fused 3×FLAG tag) (human); assay: co-immunoprecipitation (legend of FIG. 19)
[4] = target: T2, FCHo1 (FCH domain only 1), cellular protein of A549 cells detected with the α584-804 antibody (human); assay: in situ proximity ligation assay (PLA), FCHo1 (584-804) and MMP-9 antibodies, A549 cells

Substance	binding [1]	binding [2]	binding [3]	binding [4]
14-3-3ζ (from UniProt P63104 1-245)	binds	binds	binds	–
matrix metallopeptidase 9 (MMP-9) (from UniProt P14780 20-707) (enzyme)	–	–	–	binds
